Laboratory results taken from doi:10.1101/2025.05.14.653660.
These are yes or no findings as the source states them, for the method shown. Binding seen in cells or lysates may run through a third protein. Some entries that bind do so weakly or less than the wild type. Where a sequence is shown, tags or fusion partners need not be part of it.

Protein sequences, listed by entry. Tags and fused reporters are not part of them. Lines headed by an entry give the natural chain unless they say otherwise; changes in a name come on top.
UniProt Q96KQ7: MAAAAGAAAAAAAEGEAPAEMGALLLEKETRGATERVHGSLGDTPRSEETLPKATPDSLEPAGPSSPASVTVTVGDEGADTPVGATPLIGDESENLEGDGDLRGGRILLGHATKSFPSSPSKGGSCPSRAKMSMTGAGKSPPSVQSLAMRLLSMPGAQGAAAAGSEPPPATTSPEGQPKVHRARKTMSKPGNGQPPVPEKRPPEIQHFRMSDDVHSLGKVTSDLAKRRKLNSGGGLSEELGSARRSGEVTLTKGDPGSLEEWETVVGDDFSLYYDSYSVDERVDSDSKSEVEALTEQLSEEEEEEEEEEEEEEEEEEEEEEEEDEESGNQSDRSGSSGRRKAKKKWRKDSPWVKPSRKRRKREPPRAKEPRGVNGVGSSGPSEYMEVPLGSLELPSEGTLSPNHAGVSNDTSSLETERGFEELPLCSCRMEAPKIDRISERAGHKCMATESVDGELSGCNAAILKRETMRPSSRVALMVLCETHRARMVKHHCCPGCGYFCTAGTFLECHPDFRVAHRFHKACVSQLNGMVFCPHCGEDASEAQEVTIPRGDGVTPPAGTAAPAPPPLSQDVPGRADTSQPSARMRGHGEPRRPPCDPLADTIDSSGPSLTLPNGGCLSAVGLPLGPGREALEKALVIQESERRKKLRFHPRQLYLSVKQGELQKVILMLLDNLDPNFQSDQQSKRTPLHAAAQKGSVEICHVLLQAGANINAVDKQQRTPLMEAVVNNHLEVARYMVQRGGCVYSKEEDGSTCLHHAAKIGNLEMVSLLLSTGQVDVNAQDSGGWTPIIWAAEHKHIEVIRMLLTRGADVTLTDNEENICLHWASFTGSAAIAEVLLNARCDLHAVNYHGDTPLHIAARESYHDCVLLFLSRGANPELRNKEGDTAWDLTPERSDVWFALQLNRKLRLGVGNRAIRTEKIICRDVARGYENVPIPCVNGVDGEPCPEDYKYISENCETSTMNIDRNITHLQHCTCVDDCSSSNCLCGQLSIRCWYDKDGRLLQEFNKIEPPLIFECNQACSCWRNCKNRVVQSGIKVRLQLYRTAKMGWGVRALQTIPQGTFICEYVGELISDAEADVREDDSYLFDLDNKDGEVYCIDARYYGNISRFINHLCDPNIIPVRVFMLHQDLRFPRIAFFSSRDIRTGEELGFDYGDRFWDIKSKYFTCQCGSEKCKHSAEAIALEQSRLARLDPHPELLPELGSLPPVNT

T1: FLAG-tagged RUNX1T1 (UniProt Q06455)
T1 sequence: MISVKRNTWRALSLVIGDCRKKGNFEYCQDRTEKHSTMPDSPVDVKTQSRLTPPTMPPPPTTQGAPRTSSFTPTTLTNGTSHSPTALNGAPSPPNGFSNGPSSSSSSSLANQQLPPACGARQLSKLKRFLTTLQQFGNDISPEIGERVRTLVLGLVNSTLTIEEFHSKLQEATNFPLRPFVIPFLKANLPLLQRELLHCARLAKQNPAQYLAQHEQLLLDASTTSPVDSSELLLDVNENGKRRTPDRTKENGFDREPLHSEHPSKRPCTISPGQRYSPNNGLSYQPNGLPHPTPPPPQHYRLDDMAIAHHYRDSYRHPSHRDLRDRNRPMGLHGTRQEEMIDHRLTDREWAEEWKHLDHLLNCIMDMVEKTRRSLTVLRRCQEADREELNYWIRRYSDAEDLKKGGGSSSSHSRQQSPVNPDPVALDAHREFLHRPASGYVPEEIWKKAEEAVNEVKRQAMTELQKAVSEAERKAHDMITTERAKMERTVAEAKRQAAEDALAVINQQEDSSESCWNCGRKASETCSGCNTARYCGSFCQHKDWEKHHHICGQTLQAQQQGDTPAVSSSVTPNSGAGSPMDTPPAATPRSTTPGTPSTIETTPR

B1: LASP1 (protein, UniProt Q14847 1-261)
chain: MNPNCARCGKIVYPTEKVNCLDKFWHKACFHCETCKMTLNMKNYKGYEKKPYCNAHYPKQSFTMVADTPENLRLKQQSELQSQVRYKEEFEKNKGKGFSVVADTPELQRIKKTQDQISNIKYHEEFEKSRMGPSGGEGMEPERRDSQDGSSYRRPLEQQQPHHIPTSAPVYQQPQQQPVAQSYGGYKEPAAPVSIQRSAPGGGGKRYRAVYDYSAADEDEVSFQDGDTIVNVQQIDDGWMYGTVERTGDTGMLPANYVEAI

Biological target: T1, FLAG-tagged RUNX1T1
Test: co-IP

Row | Molecule | binding
1 | EHMT2/G9A (from UniProt Q96KQ7 1-1210) | binds
2 | B1 | binds
